Reference: article PMC11401034
Results are given in words; binding and its absence hold for the method and conditions named. In cells and extracts the contact can be indirect. Some binding calls cover weakened binding; strength is not graded here.

Biological target: HA::SQSTM1 (human) (UniProt Q13501)
Test: co-IP; lysate of HEK-293T cells transiently expressing HA::SQSTM1 (0.1% NP-40, 1 mM EDTA, 120 mM NaCl, 50 mM Tris-HCl pH 7.5), anti-HA antibody and Dynabeads Protein G at 4C, Western blot

**Q.** For “Argonaut 2 (AGO2) (from UniProt Q9UKV8 1-859)”, which binding is on record?
**A.** binds
